Reference: US20140113831A1
Results are given in words; binding and its absence hold for the method and conditions named. Some results given as binding are weak or reduced against the parent protein; the word gives no strength.

B1: VH domain clone C4. (SEQ ID NO: 23) (protein)
VH: QMQLVQSGAEVKKPGSSVRVSCKASGGTFSRHAISWVRQAPGQGLEWIGGILPILKTPNYAQRFQGRVTINADESTSTVYMEMSGLRSEDTAVYYCATHGGDRSYWGQGTLVTVSS
B2: VH domain clone B12. (SEQ ID NO: 24) (protein)
VH: QMQLVQSGAEVKKPGSSVRVSCKASGGTFSRHAISWVRQAPGQGLEWIGGILPILKTPNYAQRFQGRVTINADESTSTVYMEMSSLRSENTAVYYCATHGGDRSYWGQGTLVTVSS
B3: VH domain clone D07. (SEQ ID NO: 25) (protein)
VH: QMQLVQSGAEVKKPGSSVRVSCKASGGTFSRHAISWVRQAPGQGLEWIGGILPILKTPNYAQRFQGRVTINADESTSTVYMEMSSLRSDDTAVYYCATHGGDRSYWGQGTLVTVSS
B4: VH domain clone C05. (SEQ ID NO: 26) (protein)
VH: QMQLVQSGAEVKKPGSSVRVSCKASGGTFSRHAISWVRQAPGQGLEWIGGVLPILKTPNYAQRFQGRVTINADESTSTVYMELSSLRSEDTAVYYCATHGGDRSYWGQGTLVTVSS
B5: VH domain clone E05. (SEQ ID NO: 27) (protein)
VH: QVQLVQSGPKVKKPGSSVRVSCKASGGTFSRHAISWVRQAPGQGLEWIGGILPILKTPNYAQRFQGRVTINADESTSTVYMEMSSLRSEDTAVYYCATHGGDRSYWGQGTLVTVSS
B6: VH domain clone E2. (SEQ ID NO: 28) (protein)
VH: QMQLVQSGAEVKKPGASVKISCKTSGYTFTDYYIQWVRQAPGQGLEWVGWINPNSGNTGYAQKFQGRVTMTRDTSISTAYMELSSLRSEDTAVYYCATHGGDYSYWGQGTLVTVSS
B7: VH domain clone A3. (SEQ ID NO: 29) (protein)
VH: QVQLVQSGAEVKKPGASVRVSCKASGYTFSDYYIQWVRQAPGQGLEWMGWINPNSGGTYFAQKFQGRVTMTRDTSISTAYMELSSLTSDDTAVYYCATHGGDRGYWGQGTLVTVSS
B8: VH domain clone C3. (SEQ ID NO: 30) (protein)
VH: QMQLVQSGAEVKKPGASVKVSCKASGYTFTDYYIQWVRQAPGQGLEWIGGILPILKTPNYAQRFQGRVTINADESTSTVYMEMSSLRSEDTAVYYCATHGGDRSYWGQGTLVTVSS
B9: VH domain clone F10. (SEQ ID NO: 31) (protein)
VH: QMQLVQSGAEVKKPGASVKVSCKASGYTFTDYYIQWVRQAPGQGLEWMGWINPDSGGTYFAQKFQGRVAMTRDTSINTAYMELSSLRSDDTAVYYCATHGGDRSYWGQGTLVTVSS
B10: VH domain clone C12. (SEQ ID NO: 32) (protein)
VH: QVQLVQSGAEVKKPGASVKVSCKASGYTFTDYYIQWVRQAPGEGLEWMGWMNPDSGGTIYAQKFQGRVTMTRDTSISTAYMELSRLRPDDTAVYYCATHGGDRSYWGQGTLVTVSS
B11: VH domain clone H2. (SEQ ID NO: 33) (protein)
VH: QMQLVQSGAEVKNPGASVKVSCKASGYPFSAYYIQWVRQAPGQGLEWMGWLNPNSGDTHSAQKFQGRVTMTRDTSISTAYMELSGLTSDDTAVYYCATHGGDRSYWGQGTLVTVSS
B12: VH domain clone F11. (SEQ ID NO: 34) (protein)
VH: QMQLVQSGAEVKNPGASVKVSCKASGYPFSAYYIQWVRQAPGQGLEWMGWLNPNSGDTHSAQKFQGRVTMTRDTSISTAYMELSGPTSDDTAVYYCATHGGDRSYWGQGTLVTVSS
B13: VH domain clone B1. (SEQ ID NO: 35) (protein)
VH: QMQLVQSGAEVRKPGASVKVSCKASGYSFSDYYIHWVRQAPGQGLEWIGWINPNNGNTTYAQKFQGRVTMIRDTSISTAYMELSELRSDDTAVYYCATHGGDRSYWGQGTLVTVSS
B14: VH domain clone E11. (SEQ ID NO: 36) (protein)
VH: QVQLVQSGAEVEKPGASVKVSCKASGYTFTDYYIHWVRQAPGQGLEWMRGIIPIFGTANYAQKFQGRVTITADESTSTAYMELSSLRSEDTAVYYCATHGGDRSYWGQGTLVTVSS
B15: VH domain clone H1. (SEQ ID NO: 37) (protein)
VH: EVQLLESGAEVKQPGASVKVSCKTSGYTFTDYHLHWVRQAPGQGLEWMGWINPNSGGTNSAPKFQGRVTMTRDTSISTAYMELSGLTSDDTAVYYCATHGGDRSYWGQGTLVTVSS
B16: VH domain clone E6. (SEQ ID NO: 38) (protein)
VH: QMQLVQSGAEVKRPGASVKVPCKASGYTFTDYYLHWVRQAPGQGLKWMGWINPNSGGTNYAQKFQGRVTMTRDTSISTAYMELSRLRSEDTAVYYCATHGGDRSYWGQGTLVTVSS
B17: VH domain clone A1. (SEQ ID NO: 39) (protein)
VH: QVQLVQSGPEVKKPGTSVKVSCKASGFTFTSSAVQWVRQARGQRLEWIGWIVVGSGNTNYAQKFQERVTITRDMSTSTAYMELSSLRSEDTAVYYCATHGGDRSYWGQGTLVTVSS
B18: VH domain clone H7. (SEQ ID NO: 40) (protein)
VH: QVQLVQSGPEVKKPGTSVKVSCKASGFTFTSSAMQWVRQARGQRLEWIGWIVVGSGNTNYAQKFQERVTITRDMSTSTAYMELSSLRSEDTAVYYCATHGGDRSYWGQGTLVTVSS
B19: VH domain clone G04. (SEQ ID NO: 41) (protein)
VH: QVQLVQSGAEVKKPGASVKVSCKASGFTFTSYAISWVRQARGQRLEWIGWIVVGSGNTNYAQKFQERVTITRDMSTSTAYMELSSLRSEDTAVYYCATHGGDRSYWGQGTLVTVSS
B20: VH domain clone B2. (SEQ ID NO: 42) (protein)
VH: QVQLVQSGAEVKKPGASVKVSCKASGYSFTNYQVQWVRQAPGQGLEWLGVINTGVGSTNYAQKFQGRVTMTRDTATSTVYMELSSLRSEDTAVYYCATHGGDRSYWGQGTLVTVSS
B21: VH domain clone A7. (SEQ ID NO: 43) (protein)
VH: QVQLVQSGAEVKKPGASVKVSCKASGYSFTNYPVQWVRQAPGQGLEWLGVINTGVGSTNYAQKFQGRVTMTRDTATSIVYMELSSLRSEDTAVYYCATHGGDRSYWGQGTLVTVSS
B22: VH domain clone H3. (SEQ ID NO: 44) (protein)
VH: QVQLVQSGAEVKKPGASVKVSCRASGYTFTNSFMQWVRQVPGQRLEWVGLSNPSGDYTVYAPKFQGRVTMTTDTATSTFYMELFSLRSDDTAVYYCATHGGDRSYWGQGTLVTVSS
B23: VH domain clone B4. (SEQ ID NO: 45) (protein)
VH: QVQLVQSGAEVKKPGASVKVSCRASGYTFTNSFMQWVRQVPGQRLEWVGLSNPSGDYTVYAPKLQGRVTMTTDTATGTFYMELFSLRSDDTAVYYCATHGGDRSYWGQGTLVTVSS
B24: VH domain clone H05. (SEQ ID NO: 46) (protein)
VH: EVQLVQSGGGVVQPGGSLRLSCAASGFTFRSYGMHWVRQAPGKGLEWVAFILFDGNNKYYADSVKGRFTISSDNSKNTLYLQMNSLRAEDTAVYYCATHGGDRSYWGQGTLVTVSS
B25: VH domain clone F3. (SEQ ID NO: 48) (protein)
VH: QVQLVQSGAEVKKPGASVKVSCKASGYTFISHGMSWVRQAPGQGLEWMGWISADNGNTNYAQKFQERVTITRDMSTSTAYMELSSLRSEDTAVYYCATHGGDRSYWGQGTLVTVSS
B26: VH domain clone A12. (SEQ ID NO: 49) (protein)
VH: QVQLVQSGAEVKKPGASVKVSCKASGYTFISHGMSWVRQAPGQGLEWMGWISADNGNTKYAQKFQDRVTLTTDTSTSTAYLELRSLRSDDTAVYYCATHGGDRSYWGQGTLVTVSS
B27: VH domain clone G3. (SEQ ID NO: 50) (protein)
VH: QVQLVQSGAEVKKPGASVKVSCKVSGYTLTELSMHWVRQAPGKGLEWMGGFDPEDGETIYAQKFQGRVTMTRDTSISTAYMELSRLRSDDTAVYYCATHGGDRSYWGQGTLVTVSS
B28: VH domain clone F05. (SEQ ID NO: 51) (protein)
VH: QVQLVQSGAEVKRPGASVKVSCKASGYTLTELSMHWVRQAPGKGLEWMGGFDPEDGETIYAQKFQGRVTMTEDTSTDTAYMELSSLRSEDTAVYYCATHGGDRSYWGQGTLVTVSS
B29: VH domain clone H12. (SEQ ID NO: 52) (protein)
VH: QVQLVQSGAEVKKPGASVKVSCKASGYTFTDNYVHWVRQAPGQGLEWMGGIIPIFGTANYAQKFQGRVTITADESTSTAYMELSSLRSEDTAVYYCATHGGDRSYWGQGTLVTVSS
B30: VH domain clone G12. (SEQ ID NO: 53) (protein)
VH: QVQLVQSGAEVKKPGSSVKVSCKASGGAFNAYPISWVRQAPGQGLEWMGGIIPVSGTPNYAQKFQGRVTITADKSTYTAYMELSSLRSEDTAVYYCATHGGDRSYWGQGTLVTVSS
B31: VH domain clone C06. (SEQ ID NO: 54) (protein)
VH: QMQLVQSGAEVKKPGASVKVSCMASGYTFTGHYIHWVRQAPGQGLEWMGGIIPIFGTANYAQKFQGRVTITADESTSTAYTELSSLRSEDTAVYYCATHGGDRSYWGQGTLVTVSS
B32: VH domain clone F08. (SEQ ID NO: 56) (protein)
VH: QVQLVQSGAEVKKPGASVKVSCKASGYTFTSSYIHWVRQAPGQGLEWMGGIIPIFGTANYAQKFQGRVTITADKSTSTAYMELSSLRSEDTAMYYCATHGGDRSYWGQGTLVTVSS
B33: VH domain clone E9. (SEQ ID NO: 57) (protein)
VH: QVQLVESGAEVRKPGESLQISCKASGYRFTNYWIGWVRQMPGKGLEWMGITYPADSTTVYSPSFQGQVTISADKSISTVFLQWSSLRSEDTAVYYCATHGGDRSYWGQGTLVTVSS
B34: VH domain clone E11. (SEQ ID NO: 58) (protein)
VH: QVQLVESGGGVVQPGRSLRLSCAASGFTFSSYWMHWVRQAPGKGLVWVSRINNDGSSTSYADSVKGRFTISRDTAKNTLYLQMNSLRAEDTAVYYCATHGGDRSYWGQGTLVTVSS

Target: human PDGFRb (human) (UniProt P09619)
Assay: dsDNA display selection of the HCDR3 shuffled VH library; clone sequenced from the selected pool

binding, binds:
B1
B2
B3
B4
B5
B6
B7
B8
B9
B10
B11
B12
B13
B14
B15
B16
B17
B18
B19
B20
B21
B22
B23
B24
B25
B26
B27
B28
B29
B30
B31
B32
B33
B34
